# Data as given in PubChem BioAssay AID540256 (National Center for Advancing Translational Sciences (NCATS), 2011).
# About 3,700 (1.2%) of roughly 300,000 compounds were called active. Inconclusive means that the source gave no clear call. Such entries were picked first, then a sample of the others. The call rests on the fitted dose curve; tested in HEK293 cells. Where the call is inconclusive, the potency comes from a doubtful curve fit.
# Assay: qHTS for Inhibitors of binding or entry into cells for Lassa Virus; further: nearly all actives have a fitted effect of over 50% in size
# Conditions: Lassa virus pseudotype entry inhibition, cell reporter; activity change, negative = inhibition: at 37.9 µM (top of the series) unless noted
# On the % scale 0 is the no-effect control and ±100 the full control effect; potency means the concentration at half of the fitted maximal effect.
Structure (SMILES),Potency,"activity change, negative = inhibition"
CCC(C)NC(=O)Nc1ccc(Br)cc1Cl (centres undefined),"inconclusive: 2.24 µM [inhibitor, full curve, poor fit]",–
CCCCn1c(CNC(=O)C23CC4CC(CC(C4)C2)C3)nnc1SC(C)CC (centres undefined),"inconclusive: 20 µM [inhibitor, single point]",–
CC(C)Oc1cccc(C(=O)N/N=C/c2ccoc2)c1,"inconclusive: 14.1 µM [activator, single point]",–
CCOC(=O)NC(c1ccc(C(C)C)cc1)C(Cl)(Cl)Cl (centres undefined),"inconclusive: 29.1 µM [inhibitor, partial curve, poor fit]",–
O=C1CN(C(=O)c2ccc(S(=O)(=O)N3CCCC3)cc2)C(c2ccccc2)c2cc(Cl)ccc2N1 (centres undefined),"inconclusive: 15.8 µM [inhibitor, single point]",–
CCOc1ccc(C(=O)Nc2ccc3oc(-c4cccc5ccccc45)nc3c2)cc1,–,inactive: 0.705% [at 46.1 µM]
Cc1ccc(-n2c(-c3ccccc3)c[nH]c2=S)cc1,"inconclusive: 0.447 µM [inhibitor, single point]",–
CCOC(=O)C1CCN(Cc2cnc(Oc3ccc(C(C)(C)C)cc3)s2)CC1,active: 9.2 µM,–
CC(=O)Nc1cccc(C(=O)OCc2ccccc2)c1,–,inactive: 6.55%
CCC(=O)Nc1ccc(-c2nc3ccccc3c(=O)o2)cc1,"inconclusive: 10 µM [inhibitor, partial curve, poor fit]",–
Cc1nc2nc(SCC(=O)NCCCN3CCCCCC3)nn2c(C)c1Cc1ccccc1,"inconclusive: 6.31 µM [inhibitor, full curve, poor fit]",–
CC(C)c1nnc(NC(=O)c2cnccn2)s1,–,inactive: -0.214%
O=C(COc1ccccc1F)NNC(=O)c1cccc(-n2cccc2)c1,–,inactive: -1.67% [at 46.1 µM]
COc1ccc(-c2cnc3ncnn3c2N)cc1,–,inactive: 13.6%
Cc1ccc(C(=O)NCCC(C)C)cc1NC(=O)c1nsc2ccccc12,–,inactive: -13.8% [at 46.1 µM]
CCCCn1c(N)c(N(CC(C)C)C(=O)c2cccc(S(=O)(=O)N(C)c3ccccc3)c2)c(=O)[nH]c1=O,–,inactive: 3.23% [at 46.1 µM]
COc1ccc(S(=O)(=O)Nc2c(C)c(C)cc3c2ncn3C)cc1,"inconclusive: 11.2 µM [inhibitor, partial curve]",–
O=C(Nc1cccc(S(=O)(=O)C(F)F)c1)c1ccc(S(=O)(=O)N2CCCCC2)cc1,"inconclusive: 1.12 µM [inhibitor, full curve]",–
Cc1ccc(CNC(=O)Cn2cc3c(n2)-c2c(oc(C(=O)N4CCOCC4)c2C)CC3)cc1,–,inactive: -18.4% [at 46.1 µM]
CCCn1nc(C(=O)NC2CCCc3ccccc32)c2ccccc2c1=O (centres undefined),"inconclusive: 31.6 µM [inhibitor, single point]",–
Cc1cc(C)c2oc(C(=O)Nc3c(C(=O)c4ccccc4)oc4ccccc34)cc(=O)c2c1,–,inactive: -0.106% [at 46.1 µM]
COc1cccc2cc(C(=O)NCc3ccc(C)cc3)c(=N)oc12,"inconclusive: 35.5 µM [inhibitor, single point]",–

Structure (SMILES),Potency,"activity change, negative = inhibition"
O=S(=O)(NCC(c1ccco1)N1CCOCC1)c1ccc(F)cc1 (centres undefined),–,inactive: -10.5% [at 46.1 µM]
O=c1c2c(-c3ccco3)csc2nc(SCc2cn3cccnc3n2)n1-c1ccccc1,"inconclusive: 12.6 µM [inhibitor, partial curve, poor fit]",–
Cc1ccc(NC(=O)CSc2nc(N)c3c4c(sc3n2)CSC(C)(C)C4)cc1,active: 20.6 µM,–
CC1=C(C(N)=O)C(c2ccccc2F)n2nc(-c3ccc(Cl)cc3)nc2N1 (centres undefined),–,inactive: 17.8% [at 46.1 µM]
Nc1ccc2ccccc2c1N=Nc1ccccc1,"inconclusive: 2.24 µM [activator, full curve]",–
CCN(c1ccccc1)S(=O)(=O)c1cccc(C(=O)N(C)CCOc2ccccc2)c1,"inconclusive: 22.4 µM [inhibitor, single point]",–
O=C(Nc1ccc(Br)cn1)c1ccc(Cl)s1,"inconclusive: 7.94 µM [inhibitor, partial curve, poor fit]",–
CC(=O)Nc1ccc(S(=O)(=O)NCC(=O)OCC(=O)NC(=O)C2CCCCC2)cc1,"inconclusive: 0.891 µM [inhibitor, partial curve, poor fit]",–
COC(=O)c1ccc(C)c(NC(=O)Cc2coc3cc(OC)ccc23)c1,"inconclusive: 0.0146 µM [inhibitor, full curve, poor fit]",–
COc1ccccc1CCNCc1ccc(OC)c(OCc2ccccc2)c1,"inconclusive: 29.1 µM [inhibitor, single point]",–
CS(=O)(=O)CCC(C(=O)OCc1ccc(Cl)cc1)N1C(=O)c2ccccc2C1=O (centres undefined),–,inactive: 0.839%
COc1ccc(NC(=O)c2cccc(S(=O)(=O)N3CCN(c4ccccc4)CC3)c2)c(OC)c1,–,inactive: -24.1%
CCc1cc2c(=O)n(C(C)C(=O)OC3CCCCC3)cnc2s1 (centres undefined),"inconclusive: 1.41 µM [activator, full curve, poor fit]",–
CNc1nc(N)c([N+](=O)[O-])c(NCc2ccccc2)n1,–,inactive: -2.11%
CC1CC(C)CN(C(=O)COC(=O)c2cccc(S(=O)(=O)N(C)c3ccccc3)c2)C1 (centres undefined),"inconclusive: 15.8 µM [inhibitor, partial curve, poor fit]",–
CCCc1c(C(=O)Nc2ccc(N3CCOCC3)cc2)cnn1-c1ccccc1,"inconclusive: 0.891 µM [inhibitor, full curve, poor fit]",–
CCOc1cc(/C=C2/C(=N)N3N=C(CC)SC3=NC2=O)ccc1OC(=O)c1ccco1,"inconclusive: 3.55 µM [inhibitor, single point]",–
O=C(N/N=C/c1cccnc1)c1cccc(N2CCCC2=O)c1,–,inactive: 14.5% [at 46.1 µM]
Cc1cc(N(CCCl)CCCl)ccc1/C=N/NC(=O)c1ccco1,"inconclusive: 2 µM [inhibitor, full curve, poor fit]",–
Cc1cc(C)c(OCCN(C)Cc2ccccc2)c(Br)c1,"inconclusive: 0.1 µM [inhibitor, full curve, poor fit]",–
O=C1c2ccccc2NC(c2ccc3c(c2)OCCO3)N1c1ccc2c(c1)OCCO2 (centres undefined),"inconclusive: 11.2 µM [inhibitor, single point]",–
Cc1c(C(=O)OC2CCCCC2)[nH]c2c1C(=O)CC(c1ccccc1)C2 (centres undefined),"inconclusive: 6.31 µM [inhibitor, partial curve, poor fit]",–

# Laid out differently: results already given
Structure (SMILES) | Potency | activity change, negative = inhibition
CC(=O)Nc1cccc(C(=O)OCc2ccccc2)c1 | – | inactive: 6.55%
Cc1nc2nc(SCC(=O)NCCCN3CCCCCC3)nn2c(C)c1Cc1ccccc1 | inconclusive: 6.31 µM [inhibitor, full curve, poor fit] | –
COc1ccccc1CCNCc1ccc(OC)c(OCc2ccccc2)c1 | inconclusive: 29.1 µM [inhibitor, single point] | –
